From patent US7235557B2, “Compounds and their uses” (MGI GP, Inc., priority 2000, dated 2007)

Assay: Focal cerebral ischemia study: arterial blood gases, MABP and cortical blood flow
Format: in vivo, male Long-Evans rats
Details: for pH: arterial blood 30 min after MCA occlusion; for MABP Ischemia: average during occlusion; for relative blood flow in the right parietal cortex, of the baseline: during MCA and CCA occlusion, laser Doppler; for MABP Steady State: just prior to occlusion

Question: Which pH (5 mg/kg) does the source give for `O=C1NCCc2c(OCCCCN3CCCCC3)cccc21` [DPQ, 3,4-dihydro-5-[4-(1-piperidinyl)-butoxy]-1(2H)-isoquinolinone] here?
Answer: 7.36 ± 0.02

Question: And the “MABP Ischemia” value (5 mg/kg)?
Answer: 91 ± 12 mm Hg

Question: And the “relative blood flow in the right parietal cortex, of the baseline” value (“relative blood flow” for short) (5 mg/kg)?
Answer: 18.7±7.4%

Question: And the “MABP Steady State” value (5 mg/kg)?
Answer: 78 ± 5 mm Hg

Question: What about the pH (10 mg/kg) of the same compound?
Answer: 7.34 ± 0.03

Question: And the “MABP Ischemia” value (10 mg/kg)?
Answer: 90 ± 14 mm Hg

Question: And the “relative blood flow” value (10 mg/kg)?
Answer: 21.4±7.7%

Question: And the “MABP Steady State” value (10 mg/kg)?
Answer: 80 ± 9 mm Hg

Question: What about the pH (20 mg/kg) of the same compound?
Answer: 7.35 ± 0.23

Question: And the “MABP Ischemia” value (20 mg/kg)?
Answer: 91 ± 12 mm Hg

Question: What about the “MABP Steady State” value (20 mg/kg) of the same compound?
Answer: 79 ± 10 mm Hg

Question: What about the pH (40 mg/kg) of the same compound?
Answer: 7.33 ± 0.24

Question: And the “MABP Ischemia” value (40 mg/kg)?
Answer: 88 ± 12 mm Hg

Question: What about the “relative blood flow” value (40 mg/kg) of the same compound?
Answer: 19.3±11.2%

Question: And the “MABP Steady State” value (40 mg/kg)?
Answer: 78 ± 4 mm Hg
